From the supplement of paper PMC8616043
Counter-ions that a name gives are not always drawn. Some of the results follow. Repeats in this data set agree poorly, so a single value says little.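 Human U-2 OS cells stably expressing a GFP sensor with a nuclear import signal and classical export signal were transfected to produce PR50, a 50-repeat proline–arginine dipeptide from ALS/FTD gene C9ORF72. Nuclear-minus-cytoplasm GFP was scaled from DMSO (low) to PR-only (high), scored against plate test wells; strongly negative scores marked PR-reversing hits.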

Each molecule was assayed on U-2 OS NCT-C biosensor cells expressing PR50 (assay: Z-score of normalised NCT-C biosensor translocation index in PR50-expressing cells; higher = more nuclear biosensor (more disrupted nuclear export)). Settings: 3 µM; 24 h.

SMILES	Z-score
CN[C@@H]1Cc2cccc3[nH]c(=O)n(c23)C1 [Sumanirole maleate]	inactive: -0.179
NC(=O)c1cc(N2CC2)c([N+](=O)[O-])cc1[N+](=O)[O-]	inactive: 2.71
C[C@@H]1O[C@H](C[N+](C)(C)C)C[C@H]1O (racemic) [(+-)-Muscarine chloride]	inactive: -0.597
C[C@@H]1O[C@H](C[N+](C)(C)C)C[C@H]1O [(+)-Muscarine chloride]	inactive: 0.0284
CP(=O)(O)C1=CCNCC1	inactive: -0.453
C=CCN1CC[C@]23c4c5ccc(O)c4O[C@H]2C(=O)CC[C@@]3(O)[C@H]1C5 [Naloxone hydrochloride]	inactive: -1.56
C=CCN1CC[C@]23c4c5ccc(O)c4O[C@H]2C(=O)CC[C@@]3(O)[C@H]1C5 [Naloxone·HCl]	inactive: 0.397
COc1ccc2[nH]c3c(c2c1)CCNC3 [6-Methoxy-1,2,3,4- tetrahydro-9H- pyrido[3,4b] indole]	inactive: 0.524
CC[C@@H](C(=O)[C@@H](C)[C@@H](O)[C@H](C)[C@@H]1O[C@@H]([C@@H](CC)C(=O)O)CC[C@@H]1C)[C@H]1O[C@]2(C=C[C@@H](O)[C@]3(CC[C@@](C)([C@H]4CC[C@](O)(CC)[C@H](C)O4)O3)O2)[C@H](C)C[C@@H]1C [Salinomycin]	inactive: 1.7
Cc1cccc(C)c1NC(=O)CN1CCCC1=O [Nefiracetam]	inactive: -0.0248
NC(=O)CI [Iodoacetamide]	inactive: -0.205
CCCC[N+]1(C)[C@@H]2C[C@@H](OC(=O)[C@H](CO)c3ccccc3)C[C@H]1[C@@H]1O[C@@H]12 (some centres not stated) [Scopolamine N-butylbromide]	inactive: 0.615
C[C@H]1CC[C@]2(NC1)O[C@H]1C[C@H]3[C@@H]4CC[C@H]5C[C@@H](O)CC[C@]5(C)[C@H]4CC[C@]3(C)[C@H]1[C@@H]2C [Tomatidine]	inactive: 0.0832
CN1CC[C@]2(CCN3CCc4c(oc5ccccc45)[C@@H]3C2)N(C)C1=O	inactive: -0.545
N#CC(C#N)=Cc1ccc(O)c(O)c1 [Tyrphostin 23]	inactive: -0.134
N=C(NCCC[C@H](N)C(=O)O)N[N+](=O)[O-] [NG-Nitro-L- arginine]	inactive: -0.362
O=c1c2ccccc2[se]n1-c1ccccc1 [Ebselen]	inactive: -1.19
CCCN(CCC)C1Cc2cc(OC)c(OC)cc2C1	inactive: 0.249
COC(=O)N1CCN(C(=O)Cc2ccc(Cl)c(Cl)c2)C(CN2CCCC2)C1 (configuration not stated)	inactive: -1.17

SMILES	Z-score
COc1c2c(cc3c1OCO3)CCN(C)C2 [Hydrocotarnine HBr]	inactive: -0.281
CCCCCCCCCCCCCC(=O)O[C@@H]1[C@@H](C)[C@@]2(O)[C@@H](C=C(CO)C[C@@]3(O)C(=O)C(C)=C[C@@H]23)[C@@H]2C(C)(C)[C@]12OC(C)=O [4α-Phorbol 12-myristate 13-acetate]	inactive: 0.838
COc1cc(=O)oc(/C=C/C=C/C=C/C(C)=C/[C@@]2(C)O[C@H](C)[C@](C)(O)[C@H]2O)c1C [Citreoviridin]	inactive: -0.351
COC(=O)[C@@H](N)CCCNC(=N)N[N+](=O)[O-] [NG-Nitro-L-arginine methyl ester HCl]	inactive: -0.682
CN1Cc2c(ccc3c2OCO3)[C@@H]2[C@H]1c1cc3c(cc1C[C@@H]2O)OCO3 [(+)-Chelidonine]	inactive: 0.276
CC(=O)O[C@H]1C[C@@H]2CC[C@@H]3[C@H](CC[C@@]4(C)[C@H]3C[C@H]([N+]3(C)CCCCC3)[C@@H]4OC(C)=O)[C@@]2(C)C[C@@H]1[N+]1(C)CCCCC1 [Pancuronium bromide]	inactive: 0.302
C[C@]12CC[C@H](O)C[C@H]1CC[C@@H]1[C@@H]2CC[C@]2(C)[C@@H](C3=CC(=O)OC3)[C@@H](O)C[C@]12O [Gitoxigenin]	inactive: 0.528
CO[C@H]1[C@@H](O)[C@@H](C)O[C@H](O[C@H]2[C@H](Oc3cccc4c(O)c5c(=O)oc6ccc(C)c7c(=O)oc(c34)c5c67)O[C@H](C)[C@H](O)[C@@H]2O)[C@@H]1O [Chartreusin]	inactive: -0.0666
O=C1CC[C@@]2(O)[C@H]3Cc4ccc(O)c5c4[C@@]2(CCN3CC2CC2)[C@H]1O5 [Naltrexone·HCl]	inactive: 1.41
O=C1CC[C@@]2(O)[C@H]3Cc4ccc(O)c5c4[C@@]2(CCN3CC2CC2)[C@H]1O5 [Naltrexone hydrochloride]	inactive: 0.038
CC1=C2C(=O)[C@H]3[C@@H](CC=C4C[C@@H](O)CC[C@@]43C)[C@@H]2CC[C@]12O[C@@H]1C[C@H](C)CN[C@H]1[C@H]2C [Jervine]	inactive: -1.03
COc1ccc2c(c1O)-c1c(OC)c(OC)cc3c1[C@H](C2)N(C)CC3 [(+)-Isocorydine hydrochloride]	inactive: -0.0963
CN1CCN(C(=O)O[C@H]2c3nccnc3C(=O)N2c2ccc(Cl)cn2)CC1 [Eszopiclone]	inactive: 0.724
CC(=O)O[C@H]1[C@H]2[C@@H](OC(=O)Cc3ccccc3)[C@@H](C)C[C@]2(OC(C)=O)C(=O)/C(C)=C/[C@@H]2[C@H](CC[C@@]13CO3)C2(C)C [Euphorbiasteroid]	inactive: -0.427
C[C@@H]1Cc2c(Cl)cc(C(=O)N[C@@H](Cc3ccccc3)C(=O)O)c(O)c2C(=O)O1 [Ochratoxin A]	inactive: 0.0921
Cn1c(CCCC(=O)O)nc2cc(N(CCCl)CCCl)ccc21 [Bendamustine·HCl]	inactive: 0.108
Cn1c(CCCC(=O)O)nc2cc(N(CCCl)CCCl)ccc21 [Bendamustine hydrochloride]	inactive: -0.0177
Oc1ccc2c3c1O[C@H]1c4[nH]c5ccccc5c4C[C@@]4(O)[C@@H](C2)N(CC2CC2)CC[C@]314 [Naltrindole hydrochloride]	inactive: 0.0568

Taken from above.
Z-score with CC(=O)O[C@H]1[C@H]2[C@@H](OC(=O)Cc3ccccc3)[C@@H](C)C[C@]2(OC(C)=O)C(=O)/C(C)=C/[C@@H]2[C@H](CC[C@@]13CO3)C2(C)C [Euphorbiasteroid] is entered as inactive: -0.427
Z-score with COC(=O)[C@@H](N)CCCNC(=N)N[N+](=O)[O-] [NG-Nitro-L-arginine methyl ester HCl] is entered as inactive: -0.682
